Literature values, collected in patent US20220079143A1, “OIL-IN-WATER TYPE PEST REPELLENT COMPOSITION” (Kao Corporation, priority 2018, published 2022).
Some entries share one result that the patent states for a list of compounds.

Tested on: Aedes albopictus
Conditions: minimum effective amount published by the manufacturer; can also be measured as concentration giving average repellent effect duration of 2 hours or more

CCOC(=O)CCNCCCCC(C)=O [IR3535, ethyl 3-(acetylbutyl)aminopropionate]
Effective amount of the existing pest repellent: ≥ 4 % by mass
